PubChem BioAssay AID624291 (National Center for Advancing Translational Sciences (NCATS), 2012)
The whole screen tested about 350,000 compounds, of which about 220 (0.063%) were called active. The shares of active, inactive and inconclusive entries below differ from those in the screen. The call rests on the fitted dose curve; in most records, active means well fitted activation curve with a large enough effect; inconclusive means small, poorly fitted or top-dose-only effect; inactive means no such curve, though single readings can be large or run the other way. Potencies of inconclusive entries are doubtful fits and often do not repeat.

assay: qHTS for Activators of Integrin-Mediated Alleviation for Muscular Dystrophy; conditions: alpha7betagal myoblasts, beta-gal FDG fluorescence, 48 h; series mostly up to 38.3 µM; further: nearly all actives have a fitted effect of over 60% in size
Procedure, shortened: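 Alpha7betagal+/- myoblasts (passage 13) were plated 16-24 hr, then exposed to compounds (1:260 dilution of DMSO stock) for 48 hours at 37C. After MPER lysis, β-galactosidase reporter activity was read as FDG fluorescence (ex 480/em 540) after 30 minutes.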
Potency means the concentration at half of the fitted maximal effect.

| SMILES | Potency |
| --- | --- |
| CN(C)S(=O)(=O)c1ccc(Cl)c(C(=O)NC2CCN(Cc3ccccc3)C2)c1 (configuration not stated) | inactive |
| COc1ccc(-c2nc(-c3ccccc3)nc(Cl)c2C#N)cc1 | inactive |
| Cc1cccc([N+](=O)[O-])c1NC(=O)COC(=O)C1CC2CCCC(C1)C2=O (configuration not stated) | inconclusive: 11.2 µM [activator, partial curve, poor fit] |
| O=C(O)/C=C/C(=O)Nc1ccccc1C(=O)OCC(=O)c1ccc2c(c1)OCCO2 | inactive |
| S=C(NCCN1CCOCC1)Nc1ccc(-c2nc3ccccc3[nH]2)cc1 | inconclusive: 1.41 µM [activator, single point] |
| CCCn1c(N)c(N(CCOC)C(=O)CSCC(=O)Nc2ccc(OC)cc2)c(=O)[nH]c1=O | inactive |
| O=C(CN1C(=O)CCC1=O)Nc1ccc(Cc2ccc(NC(=O)CN3C(=O)CCC3=O)cc2)cc1 | inconclusive: 28.2 µM [activator, single point] |
| O=S(=O)(NCc1ccc(F)cc1)c1ccc(Br)cc1Br | inactive |
| Cc1ccc(-c2csc(NC(=O)c3cccc(C)c3)c2C(=O)O)cc1 | inconclusive: 28.2 µM [activator, partial curve, poor fit] |
| O=C(Nc1ccc(Cl)cc1)Nc1ccccn1 | inconclusive: 4.47 µM [activator, partial curve, poor fit] |
| O=C(Nc1ccc(Cl)cn1)c1ccc(COc2ccccc2Br)o1 | inactive |
| O=C(CNC(=O)c1ccco1)NCC(=O)OCc1ccccc1Cl | inconclusive: 0.891 µM [activator, single point] |
| Cc1ccc(CSCC2Nc3ccc(C(=O)N4CCN(c5ccc(F)cc5)CC4)cc3NC2=O)cc1 (configuration not stated) | inconclusive: 0.398 µM [activator, partial curve, poor fit] |
| Cc1cc(NC2CCCC2)n2nc(C)c(-c3ccccc3)c2n1 | inactive |
| C=CCNC(=O)Cn1c(=O)c2c(ncn2CCC(C)C)n(Cc2ccccc2)c1=O | inconclusive: 1.12 µM [activator, partial curve, poor fit] |
| COc1cc(OC)cc(C(=O)NCC(=O)N2CCCCC2)c1 | inconclusive: 2.24 µM [activator, full curve, poor fit] |
| COc1ccccc1N1C(N)=NC(N)=NC1(C)C | inconclusive: 2.51 µM [activator, full curve, poor fit] |
| CC(Oc1ccccc1)C(=O)Nc1nnc(C2CCCCC2)s1 (configuration not stated) | inconclusive: 14.1 µM [activator, single point] |
| CN(C)CCCOC(=O)C1c2ccccc2Oc2ccccc21 | inconclusive: 12.6 µM [activator, partial curve, poor fit] |
| COC(=O)c1ccccc1NC(=O)c1ccc(COc2cc(C)cc(C)c2)o1 | inactive |
| COc1cc2c(cc1OC)C(C(=O)NC(C)c1ccccc1)CC(=O)N2 (configuration not stated) | inconclusive: 5.01 µM [activator, single point] |

Part of the list above in order of number of heavy atoms, ascending.

| SMILES | Potency |
| --- | --- |
| COc1cc(OC)cc(C(=O)NCC(=O)N2CCCCC2)c1 | inconclusive: 2.24 µM [activator, full curve, poor fit] |
| Cc1cc(NC2CCCC2)n2nc(C)c(-c3ccccc3)c2n1 | inactive |
| O=C(CNC(=O)c1ccco1)NCC(=O)OCc1ccccc1Cl | inconclusive: 0.891 µM [activator, single point] |
| COc1cc2c(cc1OC)C(C(=O)NC(C)c1ccccc1)CC(=O)N2 (configuration not stated) | inconclusive: 5.01 µM [activator, single point] |

Next compounds:

| SMILES | Potency |
| --- | --- |
| O=c1c(S(=O)(=O)c2ccc(Cl)cc2)cn(Cc2ccccc2)c2ccc(F)cc12 | inconclusive: 11.2 µM [activator, partial curve, poor fit] |
| COc1ccc(N2CCN(C(=O)CNC(=O)c3ccco3)CC2)cc1 | inconclusive: 3.16 µM [activator, single point] |
| CCN(CC(=O)NCc1cccs1)C(=O)c1cc(S(=O)(=O)N2CCCCC2)ccc1Cl | inconclusive: 2 µM [activator, partial curve, poor fit] |
| CCCN(CCC)S(=O)(=O)c1ccc(C(=O)Nc2ccc(S(=O)(=O)Nc3nnc(CC)s3)cc2)cc1 | inconclusive: 28.2 µM [activator, single point] |
| O=C(CNC(=O)c1ccco1)NC1CCCCCC1 | inconclusive: 31.6 µM [activator, single point] |
| O=C(O)c1ccc(NC2=C(Cl)C(=O)c3ccccc3C2=O)cc1 | inconclusive: 0.708 µM [activator, full curve] |
| N/C(=N\OC(=O)c1ccc2c(c1)OCO2)c1ccc(Br)cc1 | inconclusive: 8.91 µM [activator, partial curve, poor fit] |
| COc1ccc2[nH]c3c(N4CCc5ccccc5C4)ncnc3c2c1 | inconclusive: 6.31 µM [activator, partial curve, poor fit] |
| C/C(=N\NC(=O)c1ccccc1C)c1ccc(N2CCOCC2)cc1 | inconclusive: 5.01 µM [activator, single point] |
| CC(=O)Nc1ccc(NC(=O)CN(c2ccc(F)cc2)S(=O)(=O)c2ccc3c(c2)OCCO3)cc1 | inactive |
| Cc1ccc(Cn2nc(C)cc2C(=O)Nc2ccc(Cl)cc2)cc1 | inactive |
| Cc1ccc(-n2c(C)nc3c(cnn3-c3ccc(F)cc3)c2=O)cc1C | inactive |
| CN(c1ccccc1)c1nc(N)c([N+](=O)[O-])c(NCc2ccco2)n1 | inconclusive: 3.16 µM [activator, full curve, poor fit] |
| CC1CC(C)CN(C(=O)CNS(=O)(=O)c2ccc(Br)s2)C1 (configuration not stated) | inconclusive: 12.6 µM [activator, single point] |
| CCCCn1c(-c2ccc(Br)cc2F)nc2c1c(=O)[nH]c(=O)n2CC(C)C | inactive |
| CC(=O)N1CCN(C(=O)c2ccc(Cl)c(S(=O)(=O)N3CCCCCC3)c2)CC1 | inconclusive: 1.12 µM [activator, partial curve, poor fit] |
| CC1CN(C(=O)c2ccc(-c3cccc(C(F)(F)F)c3)o2)CC(C)O1 (configuration not stated) | inactive |
| COc1ccc(C2=NN(C(=O)c3ccccc3)C(c3ccccc3)C2)c(O)c1 (configuration not stated) | inconclusive: 5.01 µM [activator, single point] |
| COc1ccc(N(C)S(=O)(=O)c2c(C)noc2C)c(OC)c1 | inconclusive: 3.55 µM [activator, single point] |
| Cc1ccc2c(c1)cc1c(=O)n(CC(=O)NCCCc3ccccc3)nc(C)n12 | inconclusive: 11.2 µM [activator, partial curve, poor fit] |
| Cn1ccnc1SCC(=O)N(C1CCCCC1)C1CCCCC1 | inconclusive: 11.2 µM [activator, partial curve, poor fit] |
